Results are given in words; binding and its absence hold for the method and conditions named. Some binding calls cover weakened binding; strength is not graded here.
Biological target: T1, Pep42 (membrane-bound)
T1 sequence (peptide, C-terminal amino acid attached through a β-alanine to a cellulose membrane): DDTLWWENNWWDDED
Test: peptide or protein array; 15-mer peptides covalently attached by the C-terminus to a cellulose membrane (PepSpots, two membranes, mean); 0.4 µM Cy5-labeled ubiquitin or His6-SUMO in TBS-T with 5% skim milk, 1 h, RT; fluorescence at 650 nm; both purified

For “Cy5-labeled ubiquitin (from UniProt P0CG72 1-76)”, the binding was “binds”.

Source: article PMC9381478, “A context-dependent and disordered ubiquitin-binding motif” (Cellular and Molecular Life Sciences: CMLS, 2022)
